Experimental data published in US20250262201A1, “COMPOUNDS AND METHODS USEFUL FOR STABILIZING PHENYLALANINE HYDROXYLASE MUTATIONS” (Agios Pharmaceuticals, Inc., priority 2022, published 2025).
Some results were stated once for a whole list of compounds, not compound by compound. Some compounds share one range, which may span the group rather than tell each member.

Molecular target: T1, human PAH with the R408W mutation (Homo sapiens, UniProt P00439, R408W)
T1 construct: expressed in transfected cells
T1 sequence (P00439 1-452 R408W): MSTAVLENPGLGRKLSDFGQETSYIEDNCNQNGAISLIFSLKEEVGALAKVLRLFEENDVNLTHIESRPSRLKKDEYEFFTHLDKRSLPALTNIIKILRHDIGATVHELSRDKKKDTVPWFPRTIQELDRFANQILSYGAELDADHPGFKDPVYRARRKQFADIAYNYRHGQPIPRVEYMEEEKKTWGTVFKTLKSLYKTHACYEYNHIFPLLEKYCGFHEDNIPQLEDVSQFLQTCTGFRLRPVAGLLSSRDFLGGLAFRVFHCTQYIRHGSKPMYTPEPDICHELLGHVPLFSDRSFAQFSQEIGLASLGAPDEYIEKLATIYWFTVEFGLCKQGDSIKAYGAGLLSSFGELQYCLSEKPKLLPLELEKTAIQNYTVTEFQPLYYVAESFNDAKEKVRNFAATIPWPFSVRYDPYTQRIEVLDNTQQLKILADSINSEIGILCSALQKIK
Assay: Cell Based Phenylalanine Flux Assay
Conditions: A375 R408W cells, 24 hrs with compound, then 20 μM sepiapterin and 800 μM 13C9,15N-Phenylalanine for 4 hours; 13C-Tyrosine by LC-MS; average where tested multiple times

Structure (SMILES)	AC50 [µM]
CC1CN(C(=O)c2nnc(NC3CC3)o2)C(c2cc3ccccc3cn2)c2nc[nH]c21 [(4R,7R) diastereomer of N-cyclopropyl-5-[4-(isoquinolin-3-yl]	1 to 5
COCc1ccc2c(C(=O)N3CC(C)c4[nH]cnc4C3c3cc4ccccc4cn3)cnn2c1 [(4R,7R) diastereomer of 3-[5-[6-(methoxymethyl)pyrazolo[1,5-]	1 to 5
CC1CN(C(=O)c2nnc(N3CCN(C)CC3)o2)C(c2cc3ccccc3cn2)c2nc[nH]c21 [(4R,7R) diastereomer of 3-[7-methyl-5-[5-(4-methylpiperazin-]	1 to 5
Cc1nnc(C(=O)N2CC(C)c3[nH]cnc3C2c2cc3ccccc3cn2)o1 [(4R,7R) diastereomer of 3-[7-methyl-5-(5-methyl-1,3,4-oxadia]	1 to 5
